According to PMC12431657, “Discovery and mechanistic insights of dibenzoylmethane as a broad spectrum inhibitor of coronavirus” (PLOS Pathogens, 2025):
Structures can show the parent of a compound that is named as a salt. Where two headings read alike, the source gives them in different places. The campaign covered roughly 3,300 compounds. About 95 (3%) showed an effect of 50% or more. Some of the results follow.

Tested on: HCoV-229E
Design: species or system Huh-7; HTS, protection from HCoV-229E induced cell death, luminescent cell viability (CellCounting-Lite 2.0), inhibition rate
Settings: 24 h post infection, 1 h compound pre-incubation, 10 µM, inhibitor

SMILES | 229E Inhibition rate [%] | 229E Inhibition rate (229E Inhibition rate, 24 h) [%]
Nc1ccc(C(=O)NCC(=O)O)cc1 [4-Aminohippuric acid] | 23.6 | –
O=c1c(-c2ccc(O)cc2)coc2cc(O[C@@H]3O[C@H](CO)[C@@H](O)[C@H](O)[C@H]3O)cc(O)c12 [Genistin] | 0 | –
COc1cc(C)ccc1O [Creosol] | 10.7 | –
COc1ccc(OC)cc1 [1,4-Dimethoxybenzene] | 21 | –
OC[C@H]1OC(O)[C@@H](O)[C@@H](O)[C@@H]1O (stereo partly drawn) [D-Mannose] | 10 | –
COc1ccc(C[C@@H]2c3cc(Oc4cc(C[C@@H]5c6cc(O)c(OC)cc6CCN5C)ccc4O)c(OC)cc3CCN2C)cc1 [Isoliensinine] | 27.3 | –
O=c1ccn([C@H]2C[C@H](O)[C@@H](COP(=O)(O)O)O2)c(=O)[nH]1 [2'-Deoxyuridine 5'-monophosphate (disodium)] | 12.5 | –
CCCCCC/C=C\CCCCCCCCCc1cccc(O)c1C(=O)O [Ginkgolic acid C17:1] | 19.4 | –
OC[C@H]1O[C@@H](Oc2ccc(O)cc2)[C@H](O)[C@@H](O)[C@@H]1O [Arbutin] | 9.2 | –
C=C(C)[C@@H]1CC=C(CO)CC1 [Perillyl alcohol] | – | 36.2
COc1cc(/C=C/C(=O)O)cc(OC)c1OC [3,4,5-Trimethoxycinnamic acid] | 11.8 | –
C/C=C/c1cc(OC)c2c(c1)C(C)C(c1ccc(O)c(OC)c1)O2 (stereo not drawn) [Dehydrodiisoeugenol] | 31.8 | –
COC(=O)C1=CO[C@@H](O[C@@H]2O[C@H](CO)[C@@H](O)[C@H](O)[C@H]2O)[C@@H]2[C@@H](C)[C@@H](O)C[C@H]12 [Loganin] | 9.1 | –
C[C@H](CCC(=O)NCCS(=O)(=O)O)[C@H]1CC[C@H]2[C@@H]3[C@H](O)C[C@@H]4C[C@H](O)CC[C@]4(C)[C@H]3CC[C@]12C [Taurochenodeoxycholic acid (sodium)] | – | 6.6
COc1ccc2c(c1OC)CN(C)c1c-2ccc2cc3c(cc12)OCO3 [Dihydrochelerythrine] | 29 | –
O=C(O)C1CCN1 (stereo not drawn) [Azetidine-2-carboxylic acid] | 9.8 | –
CCC/C=C/C=O [Trans-2-Hexenal] | 10.5 | –
CCCCC/C=C\CCCCCCc1cc(=O)c2ccccc2n1C [Evocarpine] | 12.8 | –
NCCCN(CCCCNCCCNC(=O)CCc1ccc(O)c(O)c1)C(=O)CCc1ccc(O)c(O)c1 [Kukoamine B] | 16.1 | –
CCCCC/C=C\C/C=C\CCCCCCCC(=O)OC [Methyl linoleate] | 40.2 | –
CCCCCCCCCCCCCC(=O)OC [Methyl myristate] | 9.7 | –

SMILES | 229E Inhibition rate [%] | 229E Inhibition rate (229E Inhibition rate, 24 h) [%]
CC(=O)Oc1cccc2c1C(=O)c1c(OC(C)=O)cc(C(=O)O)cc1C2=O [Diacerein] | 6.1 | –
C[N+](C)(C)CCOP(=O)(O)OP(=O)([O-])OC[C@H]1O[C@@H](n2ccc(N)nc2=O)[C@H](O)[C@@H]1O [Citicoline] | – | 8.9
C=CCCN1C[C@@H]2C[C@H](C1)c1cccc(=O)n1C2 [Rhombifoline] | 43.2 | –
NCCOP(=O)(O)O [Phosphorylethanolamine] | 14.4 | –
C=C(C)C(=O)O[C@H]1CC2=C[C@@H](C/C(C)=C/[C@H]3OC(=O)C(=C)[C@H]13)OC2=O [Deoxyelephantopin] | 6.2 | –
COc1c(-c2ccccc2)oc2cc(O)cc(O)c2c1=O [3-O-Methylgalangin] | 14 | –
CC(=O)OCC[N+](C)(C)C [Acetylcholine (iodide)] | – | 12
CC(=O)N[C@@H](CCC(=O)O)C(=O)O [N-Acetyl-L-glutamic acid] | 4 | –
OC[C@H]1O[C@@H](Oc2cc3c(O)cc(O)cc3[o+]c2-c2cc(O)c(O)c(O)c2)[C@H](O)[C@@H](O)[C@@H]1O [Delphinidin 3-glucoside (chloride)] | 19.1 | –
O=c1c(-c2ccccc2)coc2ccccc12 [Isoflavone] | 0 | –
CSC(=O)OCC1=C[C@H](O)[C@@H]2C(C(=O)O)=CO[C@@H](O[C@@H]3O[C@H](CO)[C@@H](O)[C@H](O)[C@H]3O)[C@H]12 [Paederosidic acid] | 21.2 | –
C/C1=C\[C@@H]2[C@H](C/C=C(/CO)[C@@H](O)[C@@H]3[C@@H](O)[C@@H](C)C[C@]3(O)C1=O)C2(C)C [17-Hydroxyisolathyrol] | 13.4 | –
COc1ccc([C@@H]2CC(=O)c3c(O)cc(O[C@@H]4O[C@H](CO)[C@@H](O)[C@H](O)[C@H]4O)cc3O2)cc1 [Isosakuranin] | 16.6 | –
C[C@@H]1C(=O)O[C@H](C)[C@H]1C[C@@H](O)[C@](C)(O)[C@H]1CC[C@@]2(O)C3=CC(=O)[C@@H]4C[C@@H](O)[C@@H](O)C[C@]4(C)[C@H]3CC[C@]12C [Cyasterone] | 15.4 | –
CC(C)=CCc1c(O)cc2oc3cc(O)c(O)c(CC=C(C)C)c3c(=O)c2c1O [Gamma-Mangostin] | 33.7 | –
COc1cc2c3cc1Oc1c(OC)c(OC)cc4c1[C@@H](Cc1ccc(O)c(c1)Oc1ccc(cc1)C[C@@H]3N(C)CC2)N(C)CC4 [Berbamine (dihydrochloride)] | – | 4.5
COc1cc2c(O)c3c(c(-c4ccc5c(c4)OCO5)c2cc1OC)C(=O)OC3 [Diphyllin] | 34.5 | –
C[C@H]1O[C@@H](O[C@H]2CC[C@@]3(C)[C@@H](CC[C@]4(C)[C@@H]3C=C[C@]35OC[C@@]6(CCC(C)(C)C[C@H]63)[C@@H](O)C[C@]54C)[C@]2(C)CO)[C@H](O)[C@@H](O[C@@H]2O[C@H](CO)[C@@H](O)[C@H](O)[C@H]2O)[C@H]1O [Saikosaponin A] | 10.5 | –
COc1cc2c(cc1O)C[C@@H]1NCCc3cc(OC)c(O)c-2c31 [Norisoboldine] | 0 | –
C[C@@]1(CO)C[C@@H](O)C[C@@]2(C)[C@@H]3CC[C@](C)([C@@H](O)CO)C=C3CC[C@H]12 [Kirenol] | 17.1 | –
O=C1c2ccccc2-n2c1nc1ccccc1c2=O [Tryptanthrin] | 8.3 | –

SMILES | 229E Inhibition rate [%] | 229E Inhibition rate (229E Inhibition rate, 24 h) [%]
CO[C@@H]1[C@@H](OC(N)=O)[C@@H](O)[C@H](Oc2ccc3c(O)c(NC(=O)c4ccc(O)c(CC=C(C)C)c4)c(=O)oc3c2C)OC1(C)C [Novobiocin (sodium)] | 11.4 | –
Cn1cncc1C[C@H](N)C(=O)O [3-Methyl-L-histidine] | 8.4 | –
CC(=O)O[C@H]1C[C@@]2(O)[C@@H](OC(=O)c3ccccc3)[C@@H]3[C@]4(OC(C)=O)CO[C@@H]4C[C@H](O)[C@@]3(C)[C@@H](O)[C@H](OC(C)=O)C(=C1C)C2(C)C [9-Dihydro-13-acetylbaccatin III] | 13.2 | –
CC[C@H](C)C(=O)O[C@H]1CCC=C2C=C[C@H](C)[C@H](CC[C@@H]3C[C@@H](O)CC(=O)O3)[C@H]21 [Mevastatin] | 13.2 | –
COC(=O)c1ccccc1O[C@@H]1O[C@H](CO[C@@H]2OC[C@@H](O)[C@H](O)[C@H]2O)[C@@H](O)[C@H](O)[C@H]1O [Gaultherin] | 45.9 | –
Cn1c(=O)[nH]c2[nH]cnc2c1=O [1-Methylxanthine] | 11.6 | –
CN1CCC=C(C(=O)O)C1 [Arecaidine] | – | 7.9
c1cncc(C2=NCCC2)c1 [Myosmine] | 12.6 | –
O=C(O)/C=C\c1cc2ccoc2cc1O[C@@H]1O[C@H](CO)[C@@H](O)[C@H](O)[C@H]1O [Psoralenoside] | 11.6 | –
O=C(O)C(O)c1ccccc1 (stereo not drawn) [Mandelic acid] | 13.1 | –
C[C@H](CCC(=O)O)[C@H]1CC[C@H]2[C@@H]3[C@H](O)C[C@@H]4C[C@H](O)CC[C@]4(C)[C@H]3CC[C@]12C [Chenodeoxycholic Acid] | 10.9 | –
O=C(O)C(O)O [2,2-Dihydroxyacetic acid] | 10.1 | –
O=c1cc(-c2ccc(O[C@@H]3O[C@H](CO)[C@@H](O)[C@H](O)[C@H]3O)cc2)oc2cc(O)c([C@@H]3O[C@H](CO)[C@@H](O)[C@H](O)[C@H]3O[C@@H]3OC[C@H](O)[C@H](O)[C@H]3O)c(O)c12 [Vaccarin] | 33.9 | –
O=C(/C=C/c1ccc(O)c(O)c1)OCCc1ccccc1 [Caffeic acid phenethyl ester] | 16.9 | –
CC(C)=CCC[C@]1(C)CC[C@]2(C)[C@H]3CC[C@@]4(C)[C@@H](CCC(=O)[C@@H]4C)[C@]3(C)CC[C@@]2(C)C1 [Shionone] | 20.5 | –
COc1ccc([C@@H]2CC(=O)c3c(O)cc(O[C@@H]4O[C@H](CO)[C@@H](O)[C@H](O)[C@H]4O[C@@H]4O[C@@H](C)[C@H](O)[C@@H](O)[C@H]4O)cc3O2)cc1O [Neohesperidin] | 36.2 | –
Cn1ccc(=O)n(C)c1=O [1,3-Dimethyluracil] | 19.8 | –
COC(=O)C1=CO[C@@H](O[C@@H]2O[C@H](CO)[C@@H](O)[C@H](O)[C@H]2O)[C@@H]2[C@@]3(C)O[C@H]3[C@@H](O)[C@]12O [Sesamoside] | 0 | –
CC(C)=CCC[C@](C)(O)[C@@H]1CC=C(C)CC1 [Levomenol] | – | 18.7
COc1cc(O)ccc1/C=C/C(=O)c1ccc(O)cc1 [Echinatin] | 0 | –
O=C1c2ccccc2C(=O)c2c1ccc(O)c2O [Alizarin] | 25.7 | –

As entered above.
For 229E Inhibition rate (229E Inhibition rate, 24 h) [%], CC(C)=CCC[C@](C)(O)[C@@H]1CC=C(C)CC1 [Levomenol] shows 18.7
For 229E Inhibition rate [%], COC(=O)C1=CO[C@@H](O[C@@H]2O[C@H](CO)[C@@H](O)[C@H](O)[C@H]2O)[C@@H]2[C@@H](C)[C@@H](O)C[C@H]12 [Loganin] shows 9.1
